From patent publication US11957716B2 (Immatics Biotechnologies GmbH, priority 2021, dated 2024)

Tested on: HLA molecules from shock-frozen tissue samples
Test: Identification and relative quantitation of tumor associated peptides presented on the cell surface by LC-MS (XPRESIDENT)
Parameters: species or system human
Conditions: all indications on which the peptide was identified at least once, independent of the HLA typing of the sample or the antibody used

“1 (AILAPPAILK; listed as Homo sapiens) [compound 1]” was tested, and the “Peptide presentation on cancer types” value was “BRCA, CCC, CRC, GBC, HCC, HNSCC, MEL, NSCLC, OC, OSCAR, PACA, PRCA, UBC, UEC”.

With “2 (GTVFVLLSK; listed as Homo sapiens) [compound 2]” the “Peptide presentation on cancer types” value was “HNSCC, NSCLC, OSCAR, RCC”.

“3 (VYIASSFKI; listed as Homo sapiens) [compound 3]” was tested, and the “Peptide presentation on cancer types” value was “HCC, NSCLC”.

In the case of “4 (IQAPALLKV; listed as Homo sapiens) [compound 4]”, the “Peptide presentation on cancer types” value is reported as “CLL, CRC, NHL”.

“5 (METADRPEW; listed as Homo sapiens) [compound 5]” was tested, and the “Peptide presentation on cancer types” value was “BRCA, PRCA”.

“6 (SHSLPAFTL; listed as Homo sapiens) [compound 6]” was tested, and the “Peptide presentation on cancer types” value was “PRCA”.

“7 (IYIPTNSIYKF; listed as Homo sapiens) [compound 7]” was tested, and the “Peptide presentation on cancer types” value was “HCC, PRCA”.

For “8 (VIYNQTLMK; listed as Homo sapiens) [compound 8]”, the “Peptide presentation on cancer types” value was “CCC, HCC”.

For “9 (LLGVVSHSV; listed as Homo sapiens) [compound 9]”, the “Peptide presentation on cancer types” value was “CLL, NHL”.

With “10 (ILMILQPQL; listed as Homo sapiens) [compound 10]” the “Peptide presentation on cancer types” value was “HNSCC, NSCLC, NSCLC, RCC, UEC”.

In the case of “11 (TEIGTVIKLF; listed as Homo sapiens) [compound 11]”, the “Peptide presentation on cancer types” value is reported as “PRCA”.

“12 (RLQEGLAAL; listed as Homo sapiens) [compound 12]” was tested, and the “Peptide presentation on cancer types” value was “RCC”.

In the case of “13 (LYDTVTHTF; listed as Homo sapiens) [compound 13]”, the “Peptide presentation on cancer types” value is reported as “GC, RCC”.

In the case of “14 (ILAPPQRISF; listed as Homo sapiens) [compound 14]”, the “Peptide presentation on cancer types” value is reported as “CRC, GBC, HNSCC, NSCLC, OSCAR, PACA, SCLC”.

With “15 (SPVETRSLL; listed as Homo sapiens) [compound 15]” the “Peptide presentation on cancer types” value was “CCC, HNSCC, NSCLC, PACA”.

In the case of “16 (NFHTLAQQLLF; listed as Homo sapiens) [compound 16]”, the “Peptide presentation on cancer types” value is reported as “HNSCC, NSCLC”.

For “17 (MVNWSLTNK; listed as Homo sapiens) [compound 17]”, the “Peptide presentation on cancer types” value was “HNSCC, OSCAR, UEC”.

“18 (SLSKLVATV; listed as Homo sapiens) [compound 18]” was tested, and the “Peptide presentation on cancer types” value was “CCC, CRC, GC, OSCAR, PACA”.

For “19 (RILEVVRQPK; listed as Homo sapiens) [compound 19]”, the “Peptide presentation on cancer types” value was “HCC, HNSCC, MEL, NSCLC, UBC”.

For “20 (ILAPPAILK; listed as Homo sapiens) [compound 20]”, the “Peptide presentation on cancer types” value was “BRCA, CCC, CRC, GBC, HCC, HNSCC, MEL, NSCLC, OC, OSCAR, UBC, UEC”.

With “21 (MLSAQFILK; listed as Homo sapiens) [compound 21]” the “Peptide presentation on cancer types” value was “NHL”.

For “22 (RVIEVVMNSK; listed as Homo sapiens) [compound 22]”, the “Peptide presentation on cancer types” value was “GBM, HCC, HNSCC, MEL”.

For “23 (AETKQFWSA; listed as Homo sapiens) [compound 23]”, the “Peptide presentation on cancer types” value was “GC, OSCAR, PRCA, UTC”.

In the case of “24 (LIYIPTNSIYK; listed as Homo sapiens) [compound 24]”, the “Peptide presentation on cancer types” value is reported as “HCC, PRCA”.

“25 (GVCSTLTIK; listed as Homo sapiens) [compound 25]” was tested, and the “Peptide presentation on cancer types” value was “CRC, GC, NSCLC, RCC, UBC”.

With “26 (ETNTIEFIY; listed as Homo sapiens) [compound 26]” the “Peptide presentation on cancer types” value was “BRCA, CRC, NSCLC, MEL, RCC, UBC”.

“27 (SQAKQITIW; listed as Homo sapiens) [compound 27]” was tested, and the “Peptide presentation on cancer types” value was “AML, CCC, HCC, PACA”.

For “28 (ATLQAVTLYKK; listed as Homo sapiens) [compound 28]”, the “Peptide presentation on cancer types” value was “MEL”.

In the case of “29 (GTFIAPVMK; listed as Homo sapiens) [compound 29]”, the “Peptide presentation on cancer types” value is reported as “CRC, HNSCC, NSCLC, OSCAR”.

With “30 (SLKSSILFL; listed as Homo sapiens) [compound 30]” the “Peptide presentation on cancer types” value was “CCC, GC, HNSCC, NSCLC, PACA”.

With “31 (VFLLLPYPRF; listed as Homo sapiens) [compound 31]” the “Peptide presentation on cancer types” value was “OC, RCC”.

With “32 (TAMTTLMAF; listed as Homo sapiens) [compound 32]” the “Peptide presentation on cancer types” value was “HNSCC, MEL, OSCAR, PACA, UEC”.

“33 (AYIPFPPLI; listed as Homo sapiens) [compound 33]” was tested, and the “Peptide presentation on cancer types” value was “HCC, PRCA”.

With “34 (LLFKGLMWK; listed as Homo sapiens) [compound 34]” the “Peptide presentation on cancer types” value was “HCC, MEL, UBC”.

With “35 (SLATAISAK; listed as Homo sapiens) [compound 35]” the “Peptide presentation on cancer types” value was “CLL, NHL”.

With “36 (KEIEAQEAA; listed as Homo sapiens) [compound 36]” the “Peptide presentation on cancer types” value was “CRC, OC, RCC, UEC”.

With “37 (RLYSGSSFLY; listed as Homo sapiens) [compound 37]” the “Peptide presentation on cancer types” value was “MEL”.

In the case of “38 (AVVSHFILY; listed as Homo sapiens) [compound 38]”, the “Peptide presentation on cancer types” value is reported as “AML, GBC, MEL”.

For “39 (RELGVGIAL; listed as Homo sapiens) [compound 39]”, the “Peptide presentation on cancer types” value was “HNSCC, OSCAR, UBC”.

In the case of “40 (LYQTTIELF; listed as Homo sapiens) [compound 40]”, the “Peptide presentation on cancer types” value is reported as “PRCA”.

“41 (APQPRSLAA; listed as Homo sapiens) [compound 41]” was tested, and the “Peptide presentation on cancer types” value was “BRCA, CCC, GC, HCC, HNSCC, MEL, NHL, NSCLC”.

With “42 (LLSRGILIL; listed as Homo sapiens) [compound 42]” the “Peptide presentation on cancer types” value was “CCC, CRC, GC, NSCLC, PRCA”.

In the case of “43 (VFIPSVINL; listed as Homo sapiens) [compound 43]”, the “Peptide presentation on cancer types” value is reported as “PRCA”.

With “44 (SLFPYFLNK; listed as Homo sapiens) [compound 44]” the “Peptide presentation on cancer types” value was “MEL”.

In the case of “45 (SLFPISLTV; listed as Homo sapiens) [compound 45]”, the “Peptide presentation on cancer types” value is reported as “HNSCC, NSCLC, SCLC”.

In the case of “46 (GESIYLLVRKW; listed as Homo sapiens) [compound 46]”, the “Peptide presentation on cancer types” value is reported as “CLL, NHL”.

“47 (LYIFTTRPF; listed as Homo sapiens) [compound 47]” was tested, and the “Peptide presentation on cancer types” value was “MEL, NSCLC”.

With “48 (TEMSVSALY; listed as Homo sapiens) [compound 48]” the “Peptide presentation on cancer types” value was “BRCA”.

For “49 (IYFHLNNWTI; listed as Homo sapiens) [compound 49]”, the “Peptide presentation on cancer types” value was “HNSCC, NSCLC”.

In the case of “50 (KTIDLVIVR; listed as Homo sapiens) [compound 50]”, the “Peptide presentation on cancer types” value is reported as “HNSCC, NSCLC, UBC”.

“51 (SVFSLVHLFDK; listed as Homo sapiens) [compound 51]” was tested, and the “Peptide presentation on cancer types” value was “NHL, RCC”.

With “52 (SPLPHLGPL; listed as Homo sapiens) [compound 52]” the “Peptide presentation on cancer types” value was “BRCA, CRC, GC, HCC, RCC”.

In the case of “53 (TTLENLPQK; listed as Homo sapiens) [compound 53]”, the “Peptide presentation on cancer types” value is reported as “BRCA, GBC, NSCLC, OC, OSCAR, PACA, UEC”.

In the case of “54 (ASSPVILLL; listed as Homo sapiens) [compound 54]”, the “Peptide presentation on cancer types” value is reported as “HCC, HNSCC, MEL, NSCLC, OC, UBC, UEC”.

With “55 (SPVSASWIL; listed as Homo sapiens) [compound 55]” the “Peptide presentation on cancer types” value was “MEL, UEC”.

For “56 (DVDIHKDLY; listed as Homo sapiens) [compound 56]”, the “Peptide presentation on cancer types” value was “PRCA”.

In the case of “57 (IIIDRILLL; listed as Homo sapiens) [compound 57]”, the “Peptide presentation on cancer types” value is reported as “NSCLC”.

“58 (REQLDGATL; listed as Homo sapiens) [compound 58]” was tested, and the “Peptide presentation on cancer types” value was “BRCA, CCC, CRC, GBC, GC, HNSCC, MEL, NSCLC, OC, OSCAR, PACA”.

“59 (AVDLGVLEL; listed as Homo sapiens) [compound 59]” was tested, and the “Peptide presentation on cancer types” value was “NHL, MEL, OC, RCC”.

In the case of “60 (VSPDEVLALW; listed as Homo sapiens) [compound 60]”, the “Peptide presentation on cancer types” value is reported as “HNSCC, MEL, OC, UBC”.

For “61 (GLIAFAIFK; listed as Homo sapiens) [compound 61]”, the “Peptide presentation on cancer types” value was “CRC, GC”.

For “62 (SFSLLLPYL; listed as Homo sapiens) [compound 62]”, the “Peptide presentation on cancer types” value was “AML, CRC, HCC, MEL, NSCLC”.

For “64 (LPTRSLPAF; listed as Homo sapiens) [compound 64]”, the “Peptide presentation on cancer types” value was “RCC”.

In the case of “65 (NSDLFYLLL; listed as Homo sapiens) [compound 65]”, the “Peptide presentation on cancer types” value is reported as “NSCLC, OSCAR, PACA, UBC”.

With “66 (RPLILIRI; listed as Homo sapiens) [compound 66]” the “Peptide presentation on cancer types” value was “AML, CRC, GBC, HNSCC, RCC”.

For “67 (GRFWLPFNF; listed as Homo sapiens) [compound 67]”, the “Peptide presentation on cancer types” value was “MEL, PRCA, SCLC, UEC”.

With “68 (TVDKGELLY; listed as Homo sapiens) [compound 68]” the “Peptide presentation on cancer types” value was “BRCA, GBC, GC, HCC, HNSCC, NSCLC, OC, OSCAR, PACA, RCC, UBC”.

“69 (KYPTIICGF; listed as Homo sapiens) [compound 69]” was tested, and the “Peptide presentation on cancer types” value was “CRC, GBC”.

For “70 (LIAGLIFLK; listed as Homo sapiens) [compound 70]”, the “Peptide presentation on cancer types” value was “CLL, NHL, OC, RCC, UBC, UEC”.

In the case of “71 (LIDSLLLLL; listed as Homo sapiens) [compound 71]”, the “Peptide presentation on cancer types” value is reported as “MEL, NHL, OC”.

In the case of “72 (GSCSFALSR; listed as Homo sapiens) [compound 72]”, the “Peptide presentation on cancer types” value is reported as “CCC, GC, UBC”.
